Measured values from PMC10826163.

B1: CaMKIV (protein, UniProt P13234 1-474)
chain: MLKVTVPSCPSSPCSSVTSSTENLVPDYWIDGSKRDPLSDFFEVESELGRGATSIVYRCKQKGTQKPYALKVLKKTVDKKIVRTEIGVLLRLSHPNIIKLKEIFETPTEISLVLELVTGGELFDRIVEKGYYSERDAADAVKQILEAVAYLHENGIVHRDLKPENLLYATPAPDAPLKIADFGLSKIVEHQVLMKTVCGTPGYCAPEILRGCAYGPEVDMWSVGIITYILLCGFEPFYDERGDQFMFRRILNCEYYFISPWWDEVSLNAKDLVKKLIVLDPKKRLTTFQALQHPWVTGKAANFVHMDTAQKKLQEFNARRKLKAAVKAVVASSRLGSASSSHTNIQESNKASSEAQPAQDGKDKTDPLENKMQAGDHEAAKAAADETMKLQSEEVEEEEGVKEEEEEEEEEEETSRMVPQEPEDRLETDDQEMKRNSEETLKSVEEEMDPKAEEEAAAVGLGVPPQQDAILPEY
B2: vGlut1 (protein, UniProt Q62634 1-560)
chain: MEFRQEEFRKLAGRALGRLHRLLEKRQEGAETLELSADGRPVTTHTRDPPVVDCTCFGLPRRYIIAIMSGLGFCISFGIRCNLGVAIVSMVNNSTTHRGGHVVVQKAQFNWDPETVGLIHGSFFWGYIVTQIPGGFICQKFAANRVFGFAIVATSTLNMLIPSAARVHYGCVIFVRILQGLVEGVTYPACHGIWSKWAPPLERSRLATTAFCGSYAGAVVAMPLAGVLVQYSGWSSVFYVYGSFGIFWYLFWLLVSYESPALHPSISEEERKYIEDAIGESAKLMNPVTKFNTPWRRFFTSMPVYAIIVANFCRSWTFYLLLISQPAYFEEVFGFEISKVGLVSALPHLVMTIIVPIGGQIADFLRSRHIMSTTNVRKLMNCGGFGMEATLLLVVGYSHSKGVAISFLVLAVGFSGFAISGFNVNHLDIAPRYASILMGISNGVGTLSGMVCPIIVGAMTKHKTREEWQYVFLIASLVHYGGVIFYGVFASGEKQPWAEPEEMSEEKCGFVGHDQLAGSDESEMEDEVEPPGAPPAPPPSYGATHSTVQPPRPPPPVRDY

Molecular target: Traf2-and NcK-interacting kinase (rat (endogenous in rat hippocampus))
Experiment: co-IP; rat hippocampal tissue homogenised in IP buffer with protease and phosphatase inhibitors; mouse anti-TNIK or normal mouse IgG at 4 °C overnight, protein G-agarose 3 h, five washes; Western blot with the respective antibody

Row | Binder | binding
1 | B1 | binds
2 | B2 | no binding

No constants are given. Whether binding was seen depends on the method and setting. In cells and extracts the contact can be indirect. Binding can be weak; no strength is given.
